{"source": "paper PMC11900227", "binders": {"B1": {"name": "MPK3-YFP^N (enzyme, UniProt Q39023 1-370)", "chain": "MNTGGGQYTDFPAVETHGGQFISYDIFGSLFEITSKYRPPIIPIGRGAYGIVCSVLDTETNELVAMKKIANAFDNHMDAKRTLREIKLLRHLDHENIIAIRDVVPPPLRRQFSDVYISTELMDTDLHQIIRSNQSLSEEHCQYFLYQLLRGLKYIHSANIIHRDLKPSNLLLNANCDLKICDFGLARPTSENDFMTEYVVTRWYRAPELLLNSSDYTAAIDVWSVGCIFMELMNRKPLFPGKDHVHQMRLLTELLGTPTESDLGFTHNEDAKRYIRQLPNFPRQPLAKLFSHVNPMAIDLVDRMLTFDPNRRITVEQALNHQYLAKLHDPNDEPICQKPFSFEFEQQPLDEEQIKEMIYQEAIALNPTYG"}, "B2": {"name": "MPK3-Myc (enzyme, UniProt Q39023 1-370)", "chain": "B1 chain"}}, "key": {"[1]": {"target": "IAA8-YFP^C (Arabidopsis thaliana)", "experiment": "split reporter; BiFC in Arabidopsis mesophyll protoplasts; MPK3/6-YFP^N with TIR1- or IAAs-YFP^C, 25 °C for 12 h in the dark, confocal microscopy"}, "[2]": {"target": "IAA8-GFP (Arabidopsis thaliana)", "experiment": "co-IP; Arabidopsis mesophyll protoplasts co-transfected; anti-GFP antibody immunoprecipitates IAA8-GFP, anti-Myc antibody detects MPK3-Myc or MPK6-Myc"}}, "note": "These are yes or no findings as the source states them, for the method shown. Binding seen in cells or lysates may run through a third protein. A result given as binding can be weak or reduced; the word gives no strength. Sequences can lack the tags named with a protein."}
{"binder": "B1", "values": [{"measurement": "binding", "setting": "[1]", "result": "binds"}]}
{"binder": "B2", "values": [{"measurement": "binding", "setting": "[2]", "result": "binds"}]}
